Assay results reported in paper PMC3410867.
No constants are given. Whether binding was seen depends on the method and setting. In cells and extracts the contact can be indirect. Some results given as binding are weak or reduced against the parent protein; the word gives no strength.

Protein sequences, listed by entry. Tags and fused reporters are not part of them.
UniProt P24100: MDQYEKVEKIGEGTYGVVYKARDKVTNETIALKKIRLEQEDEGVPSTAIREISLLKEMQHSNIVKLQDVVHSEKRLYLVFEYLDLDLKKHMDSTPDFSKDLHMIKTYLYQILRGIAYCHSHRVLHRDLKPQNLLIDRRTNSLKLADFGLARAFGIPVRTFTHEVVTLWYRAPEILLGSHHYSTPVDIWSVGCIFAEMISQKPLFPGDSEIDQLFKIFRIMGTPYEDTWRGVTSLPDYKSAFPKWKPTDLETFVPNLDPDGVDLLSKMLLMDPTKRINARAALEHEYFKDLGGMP

Molecular target: T1, KRP1 (Arabidopsis thaliana) (UniProt Q67Y93)
T1 sequence: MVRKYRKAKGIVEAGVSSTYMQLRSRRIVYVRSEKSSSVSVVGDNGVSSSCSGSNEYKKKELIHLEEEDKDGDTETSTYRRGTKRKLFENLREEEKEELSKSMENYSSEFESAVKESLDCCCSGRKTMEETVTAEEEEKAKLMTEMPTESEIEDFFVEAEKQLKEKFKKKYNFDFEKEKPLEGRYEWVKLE
Assay: split reporter; BiFC of CDKA;1 variants with cyclins, KRPs and CKS; semiquantitative, by number of positive cells and fluorescence intensity; each interaction tested at least three times; as described in ref. 66

For “CDKA;1 (wild-type form) (from UniProt P24100 1-294) (enzyme)”, which binding is on record?
Its binding is “binds”.
